Test results as given in PubChem BioAssay AID2685 (National Center for Advancing Translational Sciences (NCATS), 2010).
The list shows a part of the results. The main result of the screen is listed elsewhere. These columns were measured beside it and carry no call. Compounds called inactive in the main read-out are mostly missing here. The note in brackets gives the kind of curve behind each potency; many fits are weak.

Assay: qHTS Assay for Lipid Storage Modulators in Drosophila S3 Cells;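 for cell number change: cells counted by Cell Tracker Red CMTPX staining in the red channel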
Settings: BODIPY lipid droplet fluorescence, 18-24 h; for cell number change: measured here: cell count max response, cells fed with added oleic acid
Procedure, shortened: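 Drosophila S3 cells got compounds at several concentrations plus oleic acid (400 uM solution). Laser-scanning cytometry with 488 nm excitation read lipid droplets at 500-530 nm and cells at 575-640 nm. Percent activity was relative to 20 uM Triacsin C.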

[1] = measured here: lipid fluorescence (Fed channel) AC50, cells fed with added oleic acid
[2] = measured here: cell number channel AC50, cells fed with added oleic acid

SMILES | AC50 [1] | cell number change [%] | AC50 [2]
O=C(Nc1cccc2ncccc12)c1ccc([N+](=O)[O-])o1 | 18.4 µM [falling, partial curve] |  | 
Cc1ccc(-c2cc(C(=O)NCCc3ccc(S(N)(=O)=O)cc3)c3ccccc3n2)cc1 | 29.1 µM [falling, partial curve] | -95.2 | 20.6 µM [falling, single point]
Cc1cc(O)ccc1Nc1nc(-c2cccnc2)cs1 | 2.06 µM [rising, full curve] | -3.16 | 
COc1ccccc1NC(=O)CCN1C(=O)c2ccccc2S1(=O)=O |  | 17.5 | 
COc1ccc(N(CC(=O)Nc2nc3ccc(C)cc3s2)S(=O)(=O)c2c(C)nn(C)c2C)cc1 | 0.103 µM [rising, full curve, poor fit] | -3.7 | 
CCCCNS(=O)(=O)c1cc2c3c(c1)CCN3C(=O)CC2 | 29.1 µM [falling, single point] | 14.9 | 
Cc1ccc(C(=O)C(C)OC(=O)c2ccc(Cl)nc2)cc1 (configuration not stated) | 29.1 µM [falling, single point] | 31.2 | 9.2 µM [rising, partial curve, poor fit]
COc1cc(OC)nc(Oc2cc(/C=N/O)ccc2OC)n1 | 1.84 µM [rising, full curve, poor fit] | 12 | 
Cc1nc(C(=O)NCc2ccccc2)sc1C1(C)CC(c2cccnc2)=NO1 (configuration not stated) | 1.84 µM [rising, full curve, poor fit] | 7.69 | 
CCOC(=O)[C@H]1[C@H]2COc3ccc(OC)cc3[C@@H]2N2C(=O)c3ccccc3NC(=O)[C@@]12C | 0.58 µM [rising, partial curve, poor fit] | -22.3 | 
COc1ccc(OCC(=O)Nc2cc3oc4ccccc4c3cc2OC)cc1 | 29.1 µM [rising, single point] | 14.2 | 
CCOC(=O)/C(=N/Nc1ccccc1)Sc1nnc(CCc2ccccc2)n1-c1ccccc1 |  | -8.9 | 0.517 µM [rising, single point]
CCN1CCCC(NC(=O)c2scc3c2CCCC3)C1 (configuration not stated) | 29.1 µM [falling, single point] | -66.3 | 25.9 µM [falling, partial curve, poor fit]
O=C(Nc1ccc(SC(F)F)cc1)c1ccc2nccnc2c1 |  |  | 1.84 µM [rising, partial curve]
CSc1nnc(C)c(/C=C/Nc2ccc(C)cc2)n1 |  | -27.7 | 
C/C(=N\Nc1nc2ccccc2[nH]1)c1ccc2c(c1)OCO2 | 0.58 µM [falling, single point] |  | 
O=C(c1ccc(Cl)cc1)c1oc2ccccc2c1CS(=O)(=O)c1ccccc1 |  | -9.5 | 
C=CCNc1nc(N)c([N+](=O)[O-])c(N2CCCCCC2)n1 |  | 50.5 | 5.17 µM [rising, partial curve]
CC1(C)[N+]([O-])=C2C(=[N+]([O-])C1(C)C)c1ccccc1/C2=N\O | 1.3 µM [rising, full curve, poor fit] | 5.37 | 
COc1ccc(OCC(=O)Nc2nonc2NC(=O)COc2ccc(OC)cc2)cc1 | 11.2 µM [falling, partial curve, poor fit] | -41.3 | 

8 neighbouring entries from above, quoted:
SMILES | AC50 [1] | cell number change [%] | AC50 [2]
CCN1CCCC(NC(=O)c2scc3c2CCCC3)C1 (configuration not stated) | 29.1 µM [falling, single point] | -66.3 | 25.9 µM [falling, partial curve, poor fit]
O=C(Nc1ccc(SC(F)F)cc1)c1ccc2nccnc2c1 |  |  | 1.84 µM [rising, partial curve]
CSc1nnc(C)c(/C=C/Nc2ccc(C)cc2)n1 |  | -27.7 | 
C/C(=N\Nc1nc2ccccc2[nH]1)c1ccc2c(c1)OCO2 | 0.58 µM [falling, single point] |  | 
O=C(c1ccc(Cl)cc1)c1oc2ccccc2c1CS(=O)(=O)c1ccccc1 |  | -9.5 | 
C=CCNc1nc(N)c([N+](=O)[O-])c(N2CCCCCC2)n1 |  | 50.5 | 5.17 µM [rising, partial curve]
CC1(C)[N+]([O-])=C2C(=[N+]([O-])C1(C)C)c1ccccc1/C2=N\O | 1.3 µM [rising, full curve, poor fit] | 5.37 | 
COc1ccc(OCC(=O)Nc2nonc2NC(=O)COc2ccc(OC)cc2)cc1 | 11.2 µM [falling, partial curve, poor fit] | -41.3 | 

(listing goes on)

SMILES | AC50 [1] | cell number change [%] | AC50 [2]
COc1cccc(CNC(=O)c2cc3c(cc2Cl)N2CCCCCC2=NS3(=O)=O)c1 |  | 18.5 | 
CC1(C)CC(=O)C2=C(C1)OC(N)=C(C#N)C21C(=O)N(CN2CCOCC2)c2ccccc21 (configuration not stated) |  | -1.87 | 0.326 µM [falling, partial curve, poor fit]
COc1ccccc1NC(=O)COC(=O)c1ccc(S(=O)(=O)NCc2ccco2)cc1 | 0.13 µM [rising, full curve, poor fit] | -24.1 | 
O=C(C1CCN(Cc2cc(Cl)ccc2O)CC1)N1CCN(Cc2ccccc2)CC1 | 3.26 µM [falling, single point] | 19.2 | 
CCOC(=O)NC1(NC2CCCCC2)Oc2ccccc2O1 | 0.184 µM [falling, full curve, poor fit] | -16.8 | 
Cc1c(C(=O)C(=O)NCc2cccs2)c2ccccc2n1C | 0.103 µM [rising, full curve, poor fit] | 9.4 | 
O=C(NNC(=O)c1ccc[nH]1)Nc1cc(Cl)cc(Cl)c1 | 20.6 µM [rising, single point] | 13.4 | 
O=C(Nc1cc(S(=O)(=O)N2CCOCC2)ccc1Cl)c1ccc(=O)[nH]c1 |  | 4 | 
COCCOc1nc2c(c(=O)n(C)c(=O)n2C)n1Cc1cccc(OC)c1 | 1.84 µM [rising, partial curve] | 5.95 | 0.461 µM [rising, full curve]
Cc1ccc(CNC(=O)C2CCC(=O)N(C3CCCC3)C2)c(F)c1F (configuration not stated) | 0.326 µM [falling, single point] |  | 
CC1C(Br)C(=O)NC(=O)N1Cc1ccccc1 (configuration not stated) | 18.4 µM [falling, partial curve, poor fit] | -74.7 | 16.4 µM [falling, partial curve, poor fit]
CCn1cc(/C=C(\NC(=O)c2ccccc2)C(=O)N2CCOCC2)c2ccccc21 |  | 9.59 | 0.0651 µM [rising, full curve, poor fit]
CCC(CC)c1nnc(NC(=O)CS(=O)(=O)c2ccc(C)cc2)s1 |  | 17.1 | 
O=C(CSc1nnc(-c2ccccn2)n1-c1ccc(Cl)cc1)Nc1ccc2c(c1)OCO2 | 0.058 µM [rising, full curve] | 34.6 | 1.16 µM [rising, full curve]
CCc1ccc2nc3c(c(C(=O)O)c2c1)CCC3 | 29.1 µM [falling, single point] | 0.681 | 0.00461 µM [falling, full curve, poor fit]
CCOc1cccc(/C=C/C(=O)O)c1 |  | 11.2 | 
CC(=O)Nc1c2c3c(cccc3n(C)c1=O)C(=O)c1ccccc1-2 | 29.1 µM [rising, single point] | 16.9 | 
CC(=O)N(c1ccccc1)C1SC(=O)N(c2ccccc2)C1=O (configuration not stated) |  | -0.404 | 
CC(C)(C)C1CCc2c(sc(NC(=O)c3ccncc3)c2C(N)=O)C1 (configuration not stated) |  | -11.9 | 
